This is one part of the list. The source does not settle which construct or isoform was used.
Target: T1, ELF2 (UniProt Q15723)
T1 sequence: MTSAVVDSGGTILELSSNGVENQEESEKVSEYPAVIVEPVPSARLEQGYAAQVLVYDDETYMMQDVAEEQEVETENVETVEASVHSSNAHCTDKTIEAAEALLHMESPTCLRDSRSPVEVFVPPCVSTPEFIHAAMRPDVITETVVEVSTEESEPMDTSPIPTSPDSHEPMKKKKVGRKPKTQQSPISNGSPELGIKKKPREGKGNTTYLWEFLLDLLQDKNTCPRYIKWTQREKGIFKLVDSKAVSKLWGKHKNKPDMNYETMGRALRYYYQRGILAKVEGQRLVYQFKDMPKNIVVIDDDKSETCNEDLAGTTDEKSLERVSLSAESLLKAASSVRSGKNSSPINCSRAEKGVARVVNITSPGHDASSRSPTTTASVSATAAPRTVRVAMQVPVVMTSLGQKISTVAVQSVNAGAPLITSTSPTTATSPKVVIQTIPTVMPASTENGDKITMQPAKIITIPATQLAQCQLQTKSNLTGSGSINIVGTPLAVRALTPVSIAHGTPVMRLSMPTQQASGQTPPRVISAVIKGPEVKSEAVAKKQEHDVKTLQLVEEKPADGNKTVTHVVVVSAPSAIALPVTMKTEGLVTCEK
Experiment: DAPPL (digital affinity profiling via proximity ligation, sequencing)
Conditions: 10 mM Tris-HCl pH 7.5, 50 mM NaCl, 1 mM DTT, 4% glycerol, room temperature, 30 min; GST-TFs on glutathione beads, 16-mer random dsDNA library, 0.1% …; high values mean tight binding; double strand, one strand shown; scale: fold enrichment (6-mer frequency, TF over GST control)

Sequence	binding signal
TTCGTT	1.32
TCCTCC	1.51
ATTCTG	1.2
GTATTT	1.75
ACTAAG	1.03
ACTTAC	1.16
GTCTTA	1.06
CGTAAT	1.18
ATTCGT	1.15
ATAGAA	1.09
CTTTTC	1.49
CCGTAA	1.15
CGCTCT	1.25
TATATA	1.3
AATTGC	1.36
ATTCCG	2.25
CACTCG	1.05
CCCGTT	1.13
CAATAA	1.15
TACACC	1.16

Sequence	binding signal
CGCTAG	0.987
GGTTTA	1.07
TGTAGC	1.12
TTTCTC	1.52
AAAACA	1.33
TTCAAG	1.2
AATCAA	1.14
AAGTCT	1.18
AAATAT	1.44
CTGATC	1.28
ATCTAC	1.28
GGAACA	1.29
AATAGA	1.11
CATTTC	2.19
TAATAG	1.18
AGACCT	0.937
GATTTC	2.07
CGATCG	0.989
TTTGCG	1.22

Exported as labelled records: entries from further up
GGTTTA
  binding signal: 1.07
TGTAGC
  binding signal: 1.12

Reference: publication PMC7862700
